Record: PubChem BioAssay AID1259254 (NCATS, 2017)
The deposit covers about 59,000 reagents; shown is a random part of them. About 1,550 of all reagents (2.6%) count as active. 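G2 share is only a proxy for re-replication; each gene was hit by three separate siRNAs, and active genes were retested.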 Further read-outs or replicates are left out here. Not given: the amount of reagent.

Assay: 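Finding genes that stop cells copying their DNA twice in one cycle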 (primary screen)
System: human HCT116 colorectal cancer cells
Reagent: single siRNA against human genes
Timing: 3 days
Read-out: 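Imaged Hoechst DNA stain sorts each cell into a cycle phase by DNA amount; per plate, G2 fraction set to 0% for non-targeting and 100% for GMNN siRNA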
Scale: G2 robust z-score and G2 cells, % of GMNN control: higher = more G2 cells, more excess DNA replication
Active means: 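An siRNA counts as active if its G2 robust z-score lies at least 5 MADs above the screen median; here such calls match roughly 38% of GMNN control or more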

target gene	PubChem SID	G2 robust z-score	G2 cells, % of GMNN control	Outcome
FBXO39	SID160759938	-0.0778	2.42	inactive
FBXO39	SID160759939	-0.837	-2.92	inactive
FBXO39	SID160759940	0.0665	3.44	inactive
PDGFD	SID160750350	1.56	13.9	inactive
PDGFD	SID160750351	3.61	28.4	inactive
PDGFD	SID160750352	3.02	24.2	inactive
NECTIN1	SID160715460	2.45	20.2	inactive
NECTIN1	SID160715461	0.00425	3	inactive
NECTIN1	SID160715462	0.489	6.41	inactive
DCUN1D2	SID160743230	1.37	12.6	inactive
DCUN1D2	SID160743231	-0.446	-0.172	inactive
DCUN1D2	SID160743232	-0.301	0.847	inactive
PAX4	SID160713848	0.602	7.2	inactive
PAX4	SID160713849	-1.05	-4.41	inactive
PAX4	SID160713850	0.273	4.89	inactive
CRADD	SID160720713	2.21	18.5	inactive
CRADD	SID160720714	-0.605	-1.29	inactive
CRADD	SID160732091	-1.27	-5.96	inactive
ESR2	SID160761916	-0.574	-1.07	inactive
ESR2	SID160761927	-0.314	0.757	inactive
ESR2	SID160761938	2.17	18.2	inactive
COX19	SID160753772	-0.494	-0.509	inactive
COX19	SID160753773	0.589	7.11	inactive
COX19	SID160753774	-0.321	0.711	inactive
GLS2	SID160730967	2.33	19.4	inactive
GLS2	SID160738498	2.1	17.7	inactive
GLS2	SID160738500	-0.0503	2.61	inactive
TMSB15A	SID160729739	0.362	5.51	inactive
TMSB15A	SID160729740	2.36	19.6	inactive
TMSB15A	SID160729741	1.78	15.5	inactive
CLDN15	SID160724328	-0.124	2.09	inactive
CLDN15	SID160724329	1.04	10.3	inactive
CLDN15	SID160724330	-0.755	-2.34	inactive
ANKRD36C	SID160767112	-0.0666	2.5	inactive
ANKRD36C	SID160767113	-0.279	1.01	inactive
ANKRD36C	SID160767114	0.837	8.86	inactive
CXCL6	SID160716492	1.78	15.5	inactive
CXCL6	SID160716493	1.92	16.5	inactive
CXCL6	SID160716494	-0.115	2.16	inactive
KLHL4	SID160744743	0.773	8.4	inactive
KLHL4	SID160744744	-0.549	-0.898	inactive
KLHL4	SID160744745	0.122	3.82	inactive
RFX1	SID160715840	1.28	11.9	inactive
RFX1	SID160715841	-0.501	-0.56	inactive
RFX1	SID160715842	0.31	5.15	inactive
WBP4	SID160730170	0.991	9.94	inactive
WBP4	SID160730171	0.506	6.53	inactive
WBP4	SID160730172	2.84	23	inactive

8 entries from above, ordered by “G2 robust z-score”, low to high:
target gene	PubChem SID	G2 robust z-score	G2 cells, % of GMNN control	Outcome
KLHL4	SID160744744	-0.549	-0.898	inactive
RFX1	SID160715841	-0.501	-0.56	inactive
KLHL4	SID160744745	0.122	3.82	inactive
RFX1	SID160715842	0.31	5.15	inactive
WBP4	SID160730171	0.506	6.53	inactive
WBP4	SID160730170	0.991	9.94	inactive
RFX1	SID160715840	1.28	11.9	inactive
WBP4	SID160730172	2.84	23	inactive
